Laboratory results from paper PMC5471183.
Results are given in words; binding and its absence hold for the method and conditions named. In cells and extracts the contact can be indirect. Some entries that bind do so weakly or less than the wild type. Blank lines part the entries; values can stand above or below the molecule they belong to.

Protein sequences, listed by entry. Tags and fused reporters are not part of them. Residues count along the entry.
UniProt P31424, residues 21-1203: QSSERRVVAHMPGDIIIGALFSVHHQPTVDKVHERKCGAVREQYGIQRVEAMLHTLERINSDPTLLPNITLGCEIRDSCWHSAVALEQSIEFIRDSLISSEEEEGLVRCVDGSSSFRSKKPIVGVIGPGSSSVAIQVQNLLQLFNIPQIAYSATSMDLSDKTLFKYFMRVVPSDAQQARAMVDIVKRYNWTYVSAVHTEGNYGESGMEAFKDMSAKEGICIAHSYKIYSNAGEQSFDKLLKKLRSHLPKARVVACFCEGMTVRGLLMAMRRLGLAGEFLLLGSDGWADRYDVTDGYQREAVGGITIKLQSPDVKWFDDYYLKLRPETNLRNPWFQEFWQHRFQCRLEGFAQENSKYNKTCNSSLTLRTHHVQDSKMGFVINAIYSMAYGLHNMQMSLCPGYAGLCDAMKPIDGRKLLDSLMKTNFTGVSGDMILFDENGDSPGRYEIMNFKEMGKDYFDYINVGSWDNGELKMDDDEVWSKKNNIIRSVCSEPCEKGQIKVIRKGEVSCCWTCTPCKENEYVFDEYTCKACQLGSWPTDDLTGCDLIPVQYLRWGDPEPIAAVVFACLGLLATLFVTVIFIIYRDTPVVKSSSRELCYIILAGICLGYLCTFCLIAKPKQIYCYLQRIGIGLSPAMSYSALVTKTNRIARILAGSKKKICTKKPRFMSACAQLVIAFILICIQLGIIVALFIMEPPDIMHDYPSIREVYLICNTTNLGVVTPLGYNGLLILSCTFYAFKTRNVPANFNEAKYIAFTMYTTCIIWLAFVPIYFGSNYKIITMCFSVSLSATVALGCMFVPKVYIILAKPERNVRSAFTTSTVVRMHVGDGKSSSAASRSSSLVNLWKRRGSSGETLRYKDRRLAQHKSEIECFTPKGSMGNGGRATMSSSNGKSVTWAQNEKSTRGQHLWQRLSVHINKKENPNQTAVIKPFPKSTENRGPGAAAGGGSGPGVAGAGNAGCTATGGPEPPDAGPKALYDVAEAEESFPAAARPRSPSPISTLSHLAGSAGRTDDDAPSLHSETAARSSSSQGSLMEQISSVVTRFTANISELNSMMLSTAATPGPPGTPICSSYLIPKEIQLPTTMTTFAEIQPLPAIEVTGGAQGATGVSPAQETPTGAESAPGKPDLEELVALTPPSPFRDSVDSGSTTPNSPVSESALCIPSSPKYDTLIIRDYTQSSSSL
UniProt P47863: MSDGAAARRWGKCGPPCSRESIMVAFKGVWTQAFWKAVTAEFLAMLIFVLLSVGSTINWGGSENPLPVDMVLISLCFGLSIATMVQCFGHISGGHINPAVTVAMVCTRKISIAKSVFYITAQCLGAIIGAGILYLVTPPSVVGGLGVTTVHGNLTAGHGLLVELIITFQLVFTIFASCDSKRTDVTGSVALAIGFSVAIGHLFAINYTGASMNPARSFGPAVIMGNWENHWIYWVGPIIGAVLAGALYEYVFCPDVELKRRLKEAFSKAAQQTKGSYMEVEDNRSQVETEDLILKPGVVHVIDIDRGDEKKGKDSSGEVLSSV

Biological target: metabotropic glutamate receptor 5 (rat (endogenous in retina)) (UniProt P31424)
Assay: co-IP; anti-mGluR5 antibody incubated with crude rat retinal lysate (RIPA buffer: PBS with 1% NP-40, 0.5% sodium deoxycholate, 0.1% SDS, with protease and phosphatase inhibitors), precipitated with protein-G agarose; immunoblot for AQP4 and Kir4.1; IgG negative control

binding: binds
Molecule: aquaporin-4 (from UniProt P47863 1-323)

binding: binds
B1: inward-rectifying potassium ion channel Kir4.1 (protein, UniProt P49655 1-379)
chain: MTSVAKVYYSQTTQTESRPLVAPGIRRRRVLTKDGRSNVRMEHIADKRFLYLKDLWTTFIDMQWRYKLLLFSATFAGTWFLFGVVWYLVAVAHGDLLELGPPANHTPCVVQVHTLTGAFLFSLESQTTIGYGFRYISEECPLAIVLLIAQLVLTTILEIFITGTFLAKIARPKKRAETIRFSQHAVVAYHNGKLCLMIRVANMRKSLLIGCQVTGKLLQTHQTKEGENIRLNQVNVTFQVDTASDSPFLILPLTFYHVVDETSPLKDLPLRSGEGDFELVLILSGTVESTSATCQVRTSYLPEEILWGYEFTPAISLSASGKYVADFSLFDQVVKVASPGGLRDSTVRYGDPEKLKLEESLREQAEKEGSALSVRISNV
